# The campaign covered roughly 580,000 compounds. About 6,100 (1.1%) were called active. The inconclusive results got no clear call from the source; some entries with a clear call stand among them for comparison. The call rests on the fitted dose curve; in most records, active means well fitted inhibition curve with a large enough effect; inconclusive means small, poorly fitted or top-dose-only effect, or another doubt; inactive means no such curve, though single readings can be large or run the other way. Potencies beside an inconclusive call are fits to weak or partial responses and may not hold up.
# Amino acid sequences for entries named in this document (tags omitted). A change or cut given only in a name is not applied to a line headed by its entry.
# UniProt P18054: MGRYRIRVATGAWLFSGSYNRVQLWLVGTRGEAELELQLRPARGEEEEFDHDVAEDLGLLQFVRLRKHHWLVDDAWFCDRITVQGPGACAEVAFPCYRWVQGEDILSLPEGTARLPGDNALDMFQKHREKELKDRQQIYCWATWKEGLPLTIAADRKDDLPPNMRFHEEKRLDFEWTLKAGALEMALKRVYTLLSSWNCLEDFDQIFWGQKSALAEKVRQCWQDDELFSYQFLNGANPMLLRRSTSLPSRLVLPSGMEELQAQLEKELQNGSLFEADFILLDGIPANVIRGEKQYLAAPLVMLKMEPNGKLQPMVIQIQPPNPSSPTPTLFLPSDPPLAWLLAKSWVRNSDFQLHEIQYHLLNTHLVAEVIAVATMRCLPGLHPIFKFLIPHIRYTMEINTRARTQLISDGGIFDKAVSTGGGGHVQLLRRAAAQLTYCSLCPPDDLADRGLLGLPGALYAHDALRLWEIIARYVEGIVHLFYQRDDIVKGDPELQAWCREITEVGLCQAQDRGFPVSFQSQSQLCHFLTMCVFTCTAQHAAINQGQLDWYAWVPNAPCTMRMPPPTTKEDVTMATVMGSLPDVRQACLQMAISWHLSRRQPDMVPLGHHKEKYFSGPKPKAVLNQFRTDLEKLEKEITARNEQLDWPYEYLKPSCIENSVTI
# Target: Polyunsaturated fatty acid lipoxygenase ALOX12 (Homo sapiens) (UniProt P18054)
# Experiment: Primary qHTS assay for inhibitors of human arachidonate 12S-lipoxygenase (ALOX12): Round 2
# Conditions: purified 12hLO, xylenol orange hydroperoxide absorbance; activity change, negative = inhibition: at 108 µM (top of the series) unless noted
# In short: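 Purified human 12hLO (150 nM final) in 25 mM Hepes, 0.01% Triton X-100, pH 7.0 was preincubated 15 min at room temperature with compound. Then 40 uM arachidonic acid was added, 30 min. Hydroperoxide was read by Fe-XO absorbance ratio 573/405 nm.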
# On the % scale 0 is the no-effect control and ±100 the full control effect; potency means the concentration at half of the fitted maximal effect.
SMILES,Potency,"activity change, negative = inhibition"
CCOC(=O)C1=NN(c2ccccc2)C2=NC(C)=C(C(=O)OC)C(c3cccs3)N12 (centres undefined),"inconclusive: 112 µM [inhibitor, single point]",–
Cc1ccc(C(=O)C2CC(=O)Nc3c2c(C)nn3-c2ccc(Br)cc2)s1 (centres undefined),–,inactive: -11%
OC(CN1CCCC1)Cn1ccc2ccccc21 (centres undefined),"inconclusive: 1.78 µM [inhibitor, full curve, poor fit]",–
CCN1CC(CN(C)Cc2nc(COc3ccccc3)no2)CC1=O (centres undefined),"inconclusive: 2 µM [inhibitor, full curve, poor fit]",–
CCOc1cc(C2NN=C(c3ccccc3)S2)ccc1OCc1ccccc1Cl (centres undefined),"inconclusive: 2.24 µM [inhibitor, partial curve, poor fit]",–
Cc1noc(-c2cn(C3CCN(C(=O)c4ccccc4Cl)C3)nn2)n1 (centres undefined),–,inactive: 19%
Cc1cnc(-c2ccccc2)n1CCN,"inconclusive: 8.91 µM [inhibitor, full curve]",–
CN1C/C(=C/c2ccc(B(O)O)cc2)C(=O)/C(=C/c2ccc(B(O)O)cc2)C1,"inconclusive: 1.78 µM [inhibitor, full curve, poor fit]",–
C=CCNC(=S)N/N=C1/C=C(C)CC(C)(C)C1,"inconclusive: 50.1 µM [inhibitor, partial curve, poor fit]",–
COc1ccc(C(=O)Nc2ccc3oc(-c4ccc5ccccc5c4)nc3c2)cc1[N+](=O)[O-],"inconclusive: 100 µM [inhibitor, partial curve, poor fit]",–
O=C(Nc1ccc2oc(-c3cccc(F)c3)nc2c1)c1ccc2ccccc2c1,"inconclusive: 50.1 µM [inhibitor, partial curve, poor fit]",–
O=C1CCN(C(=O)Cc2cccc(F)c2)CCCOCCN1,–,inactive: 55.9%
CNS(=O)(=O)c1cccc(C(=O)OCC(=O)N2CCc3ccccc3C2)c1,"inconclusive: 79.4 µM [inhibitor, partial curve, poor fit]",–
COCC(C)NC(=O)c1ccc2c(c1)NC(=O)CCS2 (centres undefined),"inconclusive: 20 µM [inhibitor, partial curve, poor fit]",–
O=C(CSc1ncc(S(=O)(=O)c2ccc(Br)cc2)c(=O)[nH]1)Nc1ccc2c(c1)OCCO2,"inconclusive: 50.1 µM [inhibitor, partial curve, poor fit]",–
O=C(NC(=S)N1CCc2ccccc21)c1ccccc1Br,"inconclusive: 7.08 µM [inhibitor, full curve, poor fit]",–
CCOC(=O)Nc1ccc2nc(Sc3ccc(Cl)cc3)sc2c1,"inconclusive: 7.08 µM [inhibitor, partial curve, poor fit]",–
Cc1oc(/N=C/c2ccc(O)cc2O)c(C#N)c1C,"inconclusive: 44.7 µM [inhibitor, partial curve, poor fit]",–
COc1ccc(Br)cc1C(=O)Nc1c(NCc2ccccc2)c2ccccc2oc1=O,"inconclusive: 28.2 µM [inhibitor, full curve, poor fit]",–
COc1cccc(NC(=O)Cn2c(=O)n(CCCCC(=O)NCc3ccccc3Cl)c(=O)c3ccccc32)c1,–,inactive: 0%
O=C(c1ccc(Cl)cc1)N1CCN(c2cc(-c3ccc(Cl)cc3)[nH]n2)CC1,–,inactive: 6.36%
COc1cc(C(=O)NCc2cc(C)nc3ccccc23)cc(OC)c1OC,–,inactive: -0.582%
COc1cc(NC(=S)Nc2ncccc2C)cc(OC)c1OC,active: 15.8 µM,–

# Of the compounds above, these contain a halogen.
SMILES,Potency,"activity change, negative = inhibition"
Cc1ccc(C(=O)C2CC(=O)Nc3c2c(C)nn3-c2ccc(Br)cc2)s1 (centres undefined),–,inactive: -11%
CCOc1cc(C2NN=C(c3ccccc3)S2)ccc1OCc1ccccc1Cl (centres undefined),"inconclusive: 2.24 µM [inhibitor, partial curve, poor fit]",–
Cc1noc(-c2cn(C3CCN(C(=O)c4ccccc4Cl)C3)nn2)n1 (centres undefined),–,inactive: 19%
O=C(Nc1ccc2oc(-c3cccc(F)c3)nc2c1)c1ccc2ccccc2c1,"inconclusive: 50.1 µM [inhibitor, partial curve, poor fit]",–
O=C1CCN(C(=O)Cc2cccc(F)c2)CCCOCCN1,–,inactive: 55.9%
O=C(CSc1ncc(S(=O)(=O)c2ccc(Br)cc2)c(=O)[nH]1)Nc1ccc2c(c1)OCCO2,"inconclusive: 50.1 µM [inhibitor, partial curve, poor fit]",–
O=C(NC(=S)N1CCc2ccccc21)c1ccccc1Br,"inconclusive: 7.08 µM [inhibitor, full curve, poor fit]",–
CCOC(=O)Nc1ccc2nc(Sc3ccc(Cl)cc3)sc2c1,"inconclusive: 7.08 µM [inhibitor, partial curve, poor fit]",–
COc1ccc(Br)cc1C(=O)Nc1c(NCc2ccccc2)c2ccccc2oc1=O,"inconclusive: 28.2 µM [inhibitor, full curve, poor fit]",–
COc1cccc(NC(=O)Cn2c(=O)n(CCCCC(=O)NCc3ccccc3Cl)c(=O)c3ccccc32)c1,–,inactive: 0%
O=C(c1ccc(Cl)cc1)N1CCN(c2cc(-c3ccc(Cl)cc3)[nH]n2)CC1,–,inactive: 6.36%

# Next part.

SMILES,Potency,"activity change, negative = inhibition"
COC(=O)Nc1ccc(SCC(=O)c2ccc(Cl)cc2)cc1,"inconclusive: 44.7 µM [inhibitor, single point]",–
c1cc2c(nn1)CCc1nonc1-2,"inconclusive: 100 µM [inhibitor, single point]",–
CC(C)(C)CC(=O)N1CCN2C(=O)c3cc(-c4ccc5c(c4)OCO5)ccc3NC(=O)[C@H]2C1,"inconclusive: 11.2 µM [inhibitor, full curve]",–
CCc1sc(C(=O)NCc2ccco2)cc1C,"inconclusive: 100 µM [inhibitor, partial curve, poor fit]",–
COc1ccc(C(=O)NC2CCCc3c2cnn3-c2cc(F)cc(F)c2)c(OC)n1 (centres undefined),–,inactive: -19.1%
CC(C)N1C(=O)S/C(=C/c2ccccc2OCc2ccc(C(=O)O)cc2)C1=O,"inconclusive: 0.251 µM [inhibitor, full curve, poor fit]",–
O=C(NC(=S)N1CCCc2ccccc21)c1ccc([N+](=O)[O-])cc1,–,inactive: 8.43%
NS(=O)(=O)c1ccc(N/N=C/c2cccc3ccccc23)c([N+](=O)[O-])c1,"inconclusive: 126 µM [inhibitor, single point]",–
CC(=O)Nc1ccc(NC(=O)COC(=O)c2ccccc2Sc2ccccc2C#N)cc1,"inconclusive: 56.2 µM [inhibitor, partial curve, poor fit]",–
NC(=O)c1sc2nccc(Nc3ccccc3)c2c1N,"inconclusive: 89.1 µM [inhibitor, partial curve, poor fit]",–
O=C(CC1CCN(C(=O)Nc2ccccc2)C1)NC1CC1 (centres undefined),–,inactive: 4.94%
CCNC(=S)N/N=C/c1ccc(-c2ccccc2)o1,"inconclusive: 50.1 µM [inhibitor, partial curve, poor fit]",–
O=C(CSc1nc(-c2ccccc2)cc(C(F)(F)F)n1)NC1CCCCC1,–,inactive: -21.7%
COc1ccc(-c2c(C(=O)c3ccccc3)[nH]c(N)c2C(=O)NCCc2c[nH]c3ccccc23)cc1,–,inactive: -1.49%
Cc1nc(N)sc1C(=O)N/N=C/c1c[nH]c2ccccc12,–,inactive: 18.5%
O=C(N/N=C/c1ccc(Br)cc1)c1cccs1,–,inactive: -0.48%
O=C(CCCc1c[nH]c2ccccc12)Nc1ccc2ccccc2c1,"inconclusive: 79.4 µM [inhibitor, single point]",–
CCn1nc(NC(=O)c2ccccn2)c2cc3cc(C)ccc3nc21,–,inactive: 6.82%
CCN(CC)Cc1c(NC(=O)c2ccccc2)sc(C)c1C,–,inactive: -16.9%
O=C(CCC1CCCC1)N1CCN(C(=O)c2cc3ccccc3oc2=O)CC1,–,inactive: -5.46%
Fc1ccc(CNC(=S)NCc2ccccc2)cc1,"inconclusive: 56.2 µM [inhibitor, partial curve, poor fit]",–
CCCCCCCCSCCC(=O)O,"inconclusive: 89.1 µM [inhibitor, partial curve, poor fit]",–
C#CCOc1ccccc1/C=C1/C(=O)ON=C1C,"inconclusive: 14.1 µM [inhibitor, partial curve, poor fit]",–

# 2 compounds picked at random from the list so far, as already listed:
SMILES,Potency,"activity change, negative = inhibition"
NC(=O)c1sc2nccc(Nc3ccccc3)c2c1N,"inconclusive: 89.1 µM [inhibitor, partial curve, poor fit]",–
COC(=O)Nc1ccc(SCC(=O)c2ccc(Cl)cc2)cc1,"inconclusive: 44.7 µM [inhibitor, single point]",–

# Continued.

SMILES,Potency,"activity change, negative = inhibition"
c1cn2c(NC3CCCC3)c(-c3ccc(N4CCOCC4)cc3)nc2cn1,inactive,–
COc1ccc(-c2nc(C#N)c(N3CCN(C(=O)c4cccs4)CC3)o2)cc1OC,–,inactive: -5.69%
COc1ccc(/C=N/NS(=O)(=O)c2ccc(C)cc2)cc1OC(=O)c1ccc(C)cc1,–,inactive: -44.8%
O=C(O)COc1ccccc1/C=C1\SC(=Nc2ccc(F)cc2)N(c2ccc(F)cc2)C1=O,–,inactive: -8.1%
CC(C)CC1C(C#N)=C(N)Oc2n[nH]c(-c3cccs3)c21 (centres undefined),–,inconclusive: -30.5% [inhibitor]
Cc1ccc2c(Cn3nnc(-c4ccc(F)cc4)n3)cc(=O)oc2c1C,–,inconclusive: -31.4% [inhibitor]
COC(=O)c1ccc(C2C(C(=O)c3cc4ccccc4o3)=C(O)C(=O)N2c2cc(C)on2)cc1 (centres undefined),"inconclusive: 44.7 µM [inhibitor, partial curve, poor fit]",–
Cc1ccc(CN2CCC3(CC2)CCN(Cc2cccnc2)CC3CO)s1 (centres undefined),–,inactive: 2.87%
CC(=O)NS(=O)(=O)c1ccc(NC(=O)c2ccc3c(c2)NC(=O)CS3)cc1,"inconclusive: 100 µM [inhibitor, single point]",–
CCOC(=O)c1ccc(NC(C)=O)c([N+](=O)[O-])c1,"inconclusive: 3.55 µM [inhibitor, full curve, poor fit]",–
COc1ccc(CN(Cc2ccco2)C(=O)c2cc3cc(OC)c(OC)cc3[nH]2)cc1,–,inactive: 21.2%
CNC(=O)c1ccc(CN(C)C(=O)/C=C/c2ccc(S(=O)(=O)N3CCCCCC3)cc2)cc1,–,inactive: -12.7%
CS(=O)(=O)N(Cc1ccc(Cl)cc1)c1ccc(C(=O)N2CCN(c3ccccc3)CC2)cc1,"inconclusive: 3.16 µM [inhibitor, full curve, poor fit]",–
COc1ccccc1C1C(C(=O)c2ccc(C)o2)=C(O)C(=O)N1c1cc(C)on1 (centres undefined),"inconclusive: 50.1 µM [inhibitor, partial curve, poor fit]",–
C/C(CCC1CC(C)(C)OC1=O)=N\NC(N)=S (centres undefined),"inconclusive: 0.199 µM [inhibitor, full curve, poor fit]",–
COc1cc2c(cc1OC)C(c1ccc3c(c1)OCO3)C1=C(CC(C)(C)CC1=O)N2 (centres undefined),"inconclusive: 50.1 µM [inhibitor, partial curve, poor fit]",–
O=C(NNC(=O)C1CCN(S(=O)(=O)c2ccccc2)CC1)c1ccccc1O,–,inactive: -13.4%
O=C(CS(=O)(=O)c1ccc(N2CCCC2=O)cc1)N1CCOCC1,"inconclusive: 35.5 µM [inhibitor, single point]",–
O=C(COC(=O)CCSc1ccccc1Cl)Nc1ncc(Cl)cc1Cl,"inconclusive: 31.6 µM [inhibitor, partial curve, poor fit]",–
CC1CCCN(CCOc2ccc(Br)cc2)C1 (centres undefined),"inconclusive: 15.8 µM [inhibitor, partial curve, poor fit]",–
Cc1ccc(S(=O)(=O)N2CCC(CCC(=O)N3CCN(C)CC3)CC2)cc1,–,inactive: 18.9%
CC(C(=O)N1CCCc2ccccc21)N1CCN(S(=O)(=O)c2ccccc2F)CC1 (centres undefined),"inconclusive: 5.62 µM [inhibitor, partial curve, poor fit]",–
CCOC(=O)c1c(NC(C)=O)c2c3c(sc2n1Cc1nc(-c2ccccc2Cl)oc1C)CCCC3,"inconclusive: 35.5 µM [inhibitor, partial curve, poor fit]",–

# Source: PubChem BioAssay AID1671190 (National Center for Advancing Translational Sciences (NCATS), 2021)
